The results in this text go back to PMC13444138.

By UniProt entry, the sequences of proteins in these tests, tags left out. Where a name states a change or a piece, a line headed by the entry shows the natural chain unless it says otherwise.
UniProt Q68DE3: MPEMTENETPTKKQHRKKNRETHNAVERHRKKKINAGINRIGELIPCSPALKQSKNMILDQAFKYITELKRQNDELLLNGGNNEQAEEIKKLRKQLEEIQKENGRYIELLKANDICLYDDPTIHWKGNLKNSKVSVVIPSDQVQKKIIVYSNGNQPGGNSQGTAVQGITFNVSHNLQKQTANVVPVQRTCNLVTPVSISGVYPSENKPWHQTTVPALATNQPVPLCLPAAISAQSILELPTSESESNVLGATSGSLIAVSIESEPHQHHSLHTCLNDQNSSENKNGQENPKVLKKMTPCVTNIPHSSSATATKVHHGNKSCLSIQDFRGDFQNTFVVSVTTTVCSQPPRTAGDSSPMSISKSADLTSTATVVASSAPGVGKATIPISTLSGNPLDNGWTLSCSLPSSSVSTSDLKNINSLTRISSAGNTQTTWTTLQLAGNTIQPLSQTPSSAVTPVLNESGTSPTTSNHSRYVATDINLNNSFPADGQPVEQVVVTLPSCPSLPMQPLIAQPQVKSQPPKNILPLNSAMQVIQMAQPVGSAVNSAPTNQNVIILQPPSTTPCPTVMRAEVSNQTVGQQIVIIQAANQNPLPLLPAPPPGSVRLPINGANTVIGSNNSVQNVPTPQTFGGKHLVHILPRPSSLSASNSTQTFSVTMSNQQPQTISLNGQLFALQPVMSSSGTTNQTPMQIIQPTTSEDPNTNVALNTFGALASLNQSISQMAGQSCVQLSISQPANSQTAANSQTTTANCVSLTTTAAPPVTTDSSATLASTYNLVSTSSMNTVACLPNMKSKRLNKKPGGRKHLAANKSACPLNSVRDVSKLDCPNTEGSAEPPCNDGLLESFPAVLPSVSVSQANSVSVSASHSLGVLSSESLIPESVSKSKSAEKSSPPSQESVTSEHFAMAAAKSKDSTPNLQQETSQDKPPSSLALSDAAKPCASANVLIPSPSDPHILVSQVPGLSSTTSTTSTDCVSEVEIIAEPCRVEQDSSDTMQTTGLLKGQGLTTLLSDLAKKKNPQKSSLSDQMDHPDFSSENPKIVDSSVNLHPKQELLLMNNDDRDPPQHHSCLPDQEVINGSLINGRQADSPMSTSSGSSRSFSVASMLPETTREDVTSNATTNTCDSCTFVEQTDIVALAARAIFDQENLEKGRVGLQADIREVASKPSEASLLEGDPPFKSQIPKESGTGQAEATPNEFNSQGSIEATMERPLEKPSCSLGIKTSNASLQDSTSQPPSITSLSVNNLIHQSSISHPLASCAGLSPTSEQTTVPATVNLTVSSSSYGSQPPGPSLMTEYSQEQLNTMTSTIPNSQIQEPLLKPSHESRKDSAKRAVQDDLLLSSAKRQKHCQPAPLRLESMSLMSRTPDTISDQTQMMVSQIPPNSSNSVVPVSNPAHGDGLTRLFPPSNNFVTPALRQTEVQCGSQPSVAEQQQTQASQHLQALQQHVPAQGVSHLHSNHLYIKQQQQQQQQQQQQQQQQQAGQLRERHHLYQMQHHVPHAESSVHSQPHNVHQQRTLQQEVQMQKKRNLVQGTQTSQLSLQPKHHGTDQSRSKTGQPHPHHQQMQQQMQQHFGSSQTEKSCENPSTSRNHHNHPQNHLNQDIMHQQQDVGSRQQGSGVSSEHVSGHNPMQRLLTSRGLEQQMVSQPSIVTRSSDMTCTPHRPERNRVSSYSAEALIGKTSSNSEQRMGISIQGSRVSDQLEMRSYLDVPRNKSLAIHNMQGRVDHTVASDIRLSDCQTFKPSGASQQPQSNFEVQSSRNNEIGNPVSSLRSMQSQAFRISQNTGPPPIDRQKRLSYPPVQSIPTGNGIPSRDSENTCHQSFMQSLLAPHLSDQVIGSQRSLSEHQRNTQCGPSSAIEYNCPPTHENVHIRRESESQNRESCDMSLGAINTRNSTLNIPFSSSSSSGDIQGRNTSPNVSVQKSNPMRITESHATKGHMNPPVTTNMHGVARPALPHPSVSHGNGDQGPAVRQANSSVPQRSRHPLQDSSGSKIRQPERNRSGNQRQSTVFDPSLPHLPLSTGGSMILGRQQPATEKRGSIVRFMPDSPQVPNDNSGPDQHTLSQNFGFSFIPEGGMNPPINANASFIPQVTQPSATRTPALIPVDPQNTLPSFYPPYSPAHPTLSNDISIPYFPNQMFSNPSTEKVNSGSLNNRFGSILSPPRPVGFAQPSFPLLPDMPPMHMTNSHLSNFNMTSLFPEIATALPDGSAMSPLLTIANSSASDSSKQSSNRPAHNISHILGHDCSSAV
UniProt Q9H4Q3: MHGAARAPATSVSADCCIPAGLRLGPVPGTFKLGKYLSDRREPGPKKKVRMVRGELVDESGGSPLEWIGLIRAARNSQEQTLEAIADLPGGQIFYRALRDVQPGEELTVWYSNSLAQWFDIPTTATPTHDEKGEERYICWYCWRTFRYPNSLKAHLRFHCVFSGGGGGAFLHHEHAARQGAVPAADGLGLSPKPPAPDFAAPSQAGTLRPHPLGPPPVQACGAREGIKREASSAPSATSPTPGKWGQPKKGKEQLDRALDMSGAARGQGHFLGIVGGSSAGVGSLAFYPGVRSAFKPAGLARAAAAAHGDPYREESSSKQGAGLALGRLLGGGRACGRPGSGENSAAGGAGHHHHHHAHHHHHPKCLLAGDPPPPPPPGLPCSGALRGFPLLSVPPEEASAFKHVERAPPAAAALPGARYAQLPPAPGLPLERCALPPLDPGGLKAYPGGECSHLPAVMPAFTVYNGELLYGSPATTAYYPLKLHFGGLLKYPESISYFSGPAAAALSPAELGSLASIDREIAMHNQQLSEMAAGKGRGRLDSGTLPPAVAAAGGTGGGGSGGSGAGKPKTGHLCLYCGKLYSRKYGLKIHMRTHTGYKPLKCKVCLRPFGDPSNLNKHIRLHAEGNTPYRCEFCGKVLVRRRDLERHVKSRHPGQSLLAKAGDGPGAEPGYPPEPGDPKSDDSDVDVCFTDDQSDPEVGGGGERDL

Data set [1] addresses USF3-GFP (human) (UniProt Q68DE3). In words: EMSA. The settings on record: TF EMSA: 10 mM Tris-HCl (pH not given), 10 mM NaCl, 40 mM KCl, 1 mM MgCl2, 1 mM EDTA, 1 mM DTT, 0.05 mg/mL BSA, 80 ng poly-dIdC, 0.1 pmol probe, 15 min RT, gel at 4 C, protein translated in vitro, protein details: GFP fusion, label: 5' Cy5 on strand 1. Background: In EMSA bound probe runs differently from free probe, usually more slowly.

Data set [2] has as its target PRDM13-GFP (human) (UniProt Q9H4Q3). In words: EMSA. As to conditions: TF EMSA: 10 mM Tris-HCl (pH not given), 10 mM NaCl, 40 mM KCl, 1 mM MgCl2, 1 mM EDTA, 1 mM DTT, 0.05 mg/mL BSA, 80 ng poly-dIdC, 0.1 pmol probe, 15 min RT, gel at 4 C, protein translated in vitro, protein details: GFP fusion, label: 5' Cy5 on strand 1.

The exact form of at least one protein or probe is not confirmed. For some of these results: No signal at the amounts used counts as a negative.

As for “GGGGTACTGTGGAGATAGAGTAAAGATCCTAAGGTCTAACCCACGTGGCCAGATGTAGAGAAACTCCCTGAGACC (double strand) [USF3 probe, methylated]”, the binding result in data set [1] (methylated probe, 5mC at the single CpG (C44 of strand 1; complementary C presumed)) is reported as “no binding”.

Turning to “GGGGTACTGTGGAGATAGAGTAAAGATCCTAAGGTCTAACCCACGTGGCCAGATGTAGAGAAACTCCCTGAGACC (double strand) [USF3 probe, unmethylated]”, in data set [1] (unmethylated probe), the binding result was “binds”.

Consider “GGGGTACTGTGGAGATAGAGTAAAGATCCTATAGGTCTAGCAGGTGGCAGATGTATAGAGAAACTCCCTGAGACC (double strand) [PRDM13 no CG probe]”, for which, in data set [2], the binding result is given as “binds”.

Consider “GGGGTACTGTGGAGATAGAGTAAAGATCCTATAGGTCTAGCGGGTGGCAGATGTATAGAGAAACTCCCTGAGACC (double strand) [PRDM13 methyl plus probe, methylated]”, for which the binding result in data set [2] (methylated probe, 5mC at the single CpG (C41 of strand 1; complementary C presumed)) is listed as “binds”.
